These are yes or no findings as the source states them, for the method shown. Some results given as binding are weak or reduced against the parent protein; the word gives no strength. For some assays here: Sequences can lack the tags named with a protein. One block for each binder: values may come before it.
Legend:
[1] = target: huSOX2 (Cusabio, Cat no. CSB-EP022426HU(M)) antigen (human) (UniProt P48431); experiment: 4 rounds of panning on huSOX2 (Cusabio) antigen
[2] = target: huSOX2 protein with N-terminal Halo tag (pHTN vector), expressed in HEK293T cells (human) (UniProt P48431); experiment: NanoBRET in HEK293T cells, NanoLuc-VHH and Halo-huSOX2

By UniProt entry, the sequences of proteins in these tests, tags left out.
UniProt P48431: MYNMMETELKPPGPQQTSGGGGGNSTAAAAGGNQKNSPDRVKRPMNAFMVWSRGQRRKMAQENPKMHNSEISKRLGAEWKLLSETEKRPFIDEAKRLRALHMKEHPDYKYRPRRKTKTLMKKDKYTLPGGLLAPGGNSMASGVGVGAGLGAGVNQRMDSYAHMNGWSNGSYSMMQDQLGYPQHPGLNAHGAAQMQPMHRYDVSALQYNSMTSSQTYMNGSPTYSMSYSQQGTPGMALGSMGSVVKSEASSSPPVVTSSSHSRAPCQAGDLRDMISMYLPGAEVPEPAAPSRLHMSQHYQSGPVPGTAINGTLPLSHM

binding [1]: binds
B1: S14 (huSOX2-specific VHH antibody) (VHH)
VHH: QVKLEESGGGSVQTGGSLRLTCAASGSIFSMNRMGWFRQAPGKERELVAVIDSKRNKTHYADSVKGRFTISRDNAKNTVDLQMNSLKPEDTAIYYCTAWTGRPPRGYWGQGTQVTVSS

binding [2]: binds
B2: S14 with N-terminal NanoLuc tag (pNLF1-N-S14), expressed in HEK293T cells (VHH, not shown: large carriers)
VHH: B1 VHH
